Results published in PubChem BioAssay AID504444 (National Center for Advancing Translational Sciences (NCATS), 2011).
In all, about 360,000 compounds went through this assay and about 7,500 (2.1%) were called active. Inconclusive results, whose numbers are uncertain, are shown with a selection of clear calls. Calls come from the whole dose curve; as a rule, active = well fitted inhibition curve with a large enough effect; inconclusive = small, poorly fitted or top-dose-only effect, or effect the other way; inactive = flat fitted curve, though single readings scatter. Where the call is inconclusive, the potency comes from a doubtful curve fit.

Assay: Nrf2 qHTS screen for inhibitors; note: nearly all actives have a fitted effect of over 60% in size
Conditions: A549 ARE-Fluc reporter, luciferase luminescence, 18-24 h; activity change, negative = inhibition: at 46 µM (top of the series)
Method in brief: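 Reporter: ARE-Fluc in A549. Exposure: 18-24 h, 37 °C, 5% CO2, 5% FBS OPTI-MEM. Readouts: fluorescent cytotoxicity (CellTiter-Fluor), then luminescent Nrf2 signal after BugLite.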
% is set by controls: 0 for no effect and ±100 for the full control effect; potency is the fitted concentration of half-maximal effect.

For `O=C(Cn1cnc2ccccc21)N/N=C/C(Br)=C/c1ccccc1`, which “activity change, negative = inhibition” value is on record?
The value was inactive: -20.8%.

For `Cc1cc(C)c2nc(N3CCCC(C(=O)NC4CCCC4)C3)sc2c1` (stereo not given), which Potency is on record?
The Potency was inconclusive: 10.3 µM [activator, partial curve].

For `CC1CCC(NC(=O)COc2ccc(C(=O)c3ccccc3)cc2)CC1` (stereo not given), which Potency is on record?
Its Potency is active: 18.4 µM.

For `Cc1cccc(-n2c(SCC(=O)N3CC(=O)Nc4ccccc43)nc3ccccc3c2=O)c1`, which Potency is on record?
Its Potency is inconclusive: 25.9 µM [falling, partial curve, poor fit].

Which Potency does the source give for `CCSc1nsc(NC(=O)Nc2ccccc2Cl)n1` here?
The Potency was inconclusive: 29.1 µM [activator, single point].

Which Potency does the source give for `COc1ccc(Cl)cc1-n1nnc(-c2nsc(NC(=O)c3ccccc3Cl)n2)c1C` here?
Its Potency is inconclusive: 5.17 µM [falling, partial curve, poor fit].

For `CCOc1ccccc1NC(=O)CSc1nc2cc(O)ccc2c(=O)n1-c1ccc(OC)c(OC)c1`, which Potency is on record?
Its Potency is inconclusive: 29.1 µM [falling, single point].

For `CN(C)c1ccc(-c2nc3ccccn3c2/N=C/c2ccc(Br)cc2)cc1`, which “activity change, negative = inhibition” value is on record?
The value was inactive: 7.75%.

Which Potency does the source give for `CSc1cccc(NC(=O)c2ccc(CN3CCc4ccccc4C3)cc2)c1` here?
The Potency was inconclusive: 29.1 µM [falling, single point].

For `CCOc1ccc(S(=O)(=O)Nc2ccc(OC)nc2)cc1`, which Potency is on record?
The Potency was inconclusive: 29.1 µM [falling, single point].

With `CN(C)CCCn1c(=S)[nH]c2sc3c(c2c1=O)CCCC3` as the compound, how does the “activity change, negative = inhibition” value read?
The value was inactive: 10.7%.

With `CCCCS/C(N)=N/N=C/c1ccccc1O` as the compound, how does the Potency read?
Its Potency is inconclusive: 10.3 µM [activator, partial curve].

With `CCc1nn(Cc2cc(C)ccc2C)c(=O)c2cc3cc(C)ccc3n12` as the compound, how does the “activity change, negative = inhibition” value read?
Its value is inactive: 3.68%.

With `Cc1cc(C)n(-c2ccc(C(=O)Nc3ccc(C)c(S(=O)(=O)N(C)C)c3)cc2)n1` as the compound, how does the Potency read?
The Potency was active: 18.4 µM.

Which Potency does the source give for `COc1ccc(C(=O)Oc2cc(N)n(S(=O)(=O)c3ccc(C)cc3)n2)cc1` here?
The Potency was active: 7.31 µM.

With `Cc1nc(SCC(=O)Nc2cc(C)on2)c2c3c(sc2n1)CCCC3` as the compound, how does the Potency read?
Its Potency is inconclusive: 29.1 µM [falling, single point].

For `CC1=NN(C(=O)c2ccncc2)C(=O)C1N=Nc1ccc2ccccc2c1` (stereo not given), which Potency is on record?
Its Potency is inconclusive: 29.1 µM [activator, single point].

For `CN(Cc1cnccn1)C(=O)c1cc(COc2cccc(C(F)(F)F)c2)on1`, which “activity change, negative = inhibition” value is on record?
The value was inactive: 4.98%.

For `COc1ccccc1N1CCN(CCCNC(=O)c2cnn(-c3ccccc3)c2C2CCN(C(=O)OC(C)(C)C)CC2)CC1`, which Potency is on record?
The Potency was inconclusive: 20.6 µM [activator, single point].

With `Cn1cc([N+](=O)[O-])c(C(=O)Nc2sc3c(c2C#N)CCC3)n1` as the compound, how does the Potency read?
The Potency was inconclusive: 20.6 µM [falling, single point].

With `CCOC(=O)c1c(CN2CCOCC2)n(-c2ccccc2)c2cc(Br)c(O)c(CN(C)C)c12` as the compound, how does the Potency read?
Its Potency is inconclusive: 32.6 µM [falling, single point].

With `Cc1onc(-c2c(F)cccc2Cl)c1C(N)=S` as the compound, how does the Potency read?
The Potency was inconclusive: 2.59 µM [falling, partial curve, poor fit].

Which “activity change, negative = inhibition” value does the source give for `COc1ccc(N(Cc2cc3cc(C)ccc3[nH]c2=O)C(C)=O)cc1` here?
Its value is inactive: 2.4%.

With `CS(=O)(=O)N1CCN(c2ccccc2NC(=S)NC(=O)c2cccs2)CC1` as the compound, how does the “activity change, negative = inhibition” value read?
Its value is inactive: -5.17%.

For `Cc1ccc2c(c1)Oc1ccc([N+](=O)[O-])cc1C(=O)N2`, which “activity change, negative = inhibition” value is on record?
Its value is inactive: -6.57%.

For `COC(=O)/C(=C/c1cccnc1)NC(=O)c1ccccc1`, which “activity change, negative = inhibition” value is on record?
Its value is inactive: -15.1%.

With `COc1ccc(N(C)S(=O)(=O)c2cccc(C(=O)Nc3cc(OC)ccc3OC)c2)cc1` as the compound, how does the Potency read?
The Potency was inconclusive: 23.1 µM [falling, single point].

With `CC(C)CCOc1ccc(C(=O)NCC(c2ccco2)N(C)C)cc1` (stereo not given) as the compound, how does the Potency read?
Its Potency is inconclusive: 20.6 µM [activator, single point].

Which Potency does the source give for `O=C(CCC(=O)OCC(=O)c1ccc(Br)cc1)NC1CCCCC1` here?
The Potency was inconclusive: 4.11 µM [activator, partial curve, poor fit].

For `CCc1ccc(C(=O)N2CCC(c3nc4ccccc4s3)CC2)cc1`, which Potency is on record?
Its Potency is inconclusive: 23.1 µM [falling, partial curve, poor fit].

For `NS(=O)(=O)c1ccc(CCNS(=O)(=O)c2ccc3c(c2)NC(=O)CO3)cc1`, which “activity change, negative = inhibition” value is on record?
The value was inactive: 14.3%.

With `Cn1ccsc1=NC(=O)c1ccc(Cl)cc1` as the compound, how does the Potency read?
The Potency was inconclusive: 4.11 µM [activator, partial curve].

With `CN(C)C(CNC(=O)c1cc(S(=O)(=O)N(C)c2ccc(F)cc2)ccc1Cl)c1cccs1` (stereo not given) as the compound, how does the “activity change, negative = inhibition” value read?
Its value is inactive: -28.7%.

Which Potency does the source give for `Cc1nn(CC(=O)Nc2ccc3c(c2)oc2ccccc23)c(=O)c2ccccc12` here?
Its Potency is inconclusive: 14.6 µM [falling, partial curve, poor fit].

Which Potency does the source give for `COCCNc1ccc(-c2n[nH]c(=O)c3ccccc23)cc1[N+](=O)[O-]` here?
Its Potency is inconclusive: 6.51 µM [falling, partial curve, poor fit].

Which Potency does the source give for `CN1c2ccsc2/C(=N/Nc2ccc(F)cc2)CS1(=O)=O` here?
The Potency was inconclusive: 4.61 µM [activator, partial curve].

With `CCc1ccc2oc(-c3cccc(N)c3)nc2c1` as the compound, how does the Potency read?
The Potency was inconclusive: 1.64 µM [activator, full curve].

With `Cc1noc(C)c1C(=O)N1CCC2(CC1)Oc1ccc(F)cc1C(=O)C21CC(c2ccc(Cl)cc2)=NO1` (stereo not given) as the compound, how does the “activity change, negative = inhibition” value read?
The value was inactive: 2.19%.

With `Nc1c(-c2ccccc2)nc(Cl)nc1-c1ccccc1` as the compound, how does the Potency read?
Its Potency is inconclusive: 25.9 µM [falling, single point].

With `CCc1ccc(-n2c(Cc3ccccc3)nnc2SCc2nc(-c3cccs3)no2)cc1` as the compound, how does the Potency read?
Its Potency is inconclusive: 29.1 µM [falling, single point].

For `COCCC(=O)N1CCC(Oc2ccc(C(=O)N3CCCC(CCCO)C3)cc2)CC1` (stereo not given), which “activity change, negative = inhibition” value is on record?
Its value is inactive: 3.98%.

For `Cc1c(C2=CCN(S(=O)(=O)c3ccc(Br)cc3)CC2)c2ccccc2n1C`, which “activity change, negative = inhibition” value is on record?
The value was inactive: -3.37%.

With `CCN(CC)S(=O)(=O)c1ccc(NC(=O)C2COc3ccccc3O2)cc1` (stereo not given) as the compound, how does the Potency read?
The Potency was inconclusive: 7.31 µM [falling, partial curve].

Which Potency does the source give for `O=C(Nc1ccc(S(=O)(=O)N2CCCC2)cc1)c1ccc([N+](=O)[O-])o1` here?
Its Potency is inconclusive: 29.1 µM [falling, single point].

For `COc1ccc(-n2c(O)c(/C=N/NS(=O)(=O)c3cc(C)ccc3C)c3ccccc3c2=O)cc1OC`, which Potency is on record?
The Potency was inconclusive: 11.6 µM [falling, partial curve].

With `Cc1cc(C)cc(-n2ncc3c2CCCC3NC(=O)c2cc(C)[nH]n2)c1` (stereo not given) as the compound, how does the “activity change, negative = inhibition” value read?
Its value is inactive: 10%.

With `COc1ccc(O)c(C(=O)c2cnn(-c3ccccc3)c2)c1` as the compound, how does the Potency read?
The Potency was inconclusive: 20.6 µM [activator, single point].

With `O=C(NCc1ccc(Cl)cc1)c1ccc(NC(=O)C2CCCO2)cc1` (stereo not given) as the compound, how does the Potency read?
Its Potency is inconclusive: 20.6 µM [falling, partial curve, poor fit].

With `CCN(CC(=O)Nc1cc(Cl)ccc1C)c1ncnc2sc(C)c(C)c12` as the compound, how does the Potency read?
Its Potency is inconclusive: 29.1 µM [falling, single point].

Which “activity change, negative = inhibition” value does the source give for `COc1cccc(CCNC(=O)c2c(O)nc3ccccn3c2=O)c1` here?
Its value is inactive: 3.83%.

Which Potency does the source give for `NC(=O)c1ccc(NC(=O)c2cnc3ccccc3n2)cc1` here?
The Potency was inconclusive: 23.1 µM [activator, single point].

With `O=C(Nc1ccccc1)NC1(C(=O)NCc2cccs2)CCCCC1` as the compound, how does the Potency read?
The Potency was inconclusive: 29.1 µM [falling, single point].

Which Potency does the source give for `Cc1cc(C)c(C)c(S(=O)(=O)N2CCC(C(=O)NNC(=O)c3ccccc3O)CC2)c1C` here?
The Potency was inconclusive: 29.1 µM [falling, single point].

For `Cc1ccc(Cl)c2sc(NC(=O)C3CC3)nc12`, which “activity change, negative = inhibition” value is on record?
Its value is inactive: -20.9%.

With `Cc1ccc2cc(C#N)c(NCc3ccco3)nc2c1` as the compound, how does the “activity change, negative = inhibition” value read?
Its value is inactive: 20.2%.

With `C[C@@H](CSc1ccc(Br)cc1)CN1CC[C@H](C(C)(C)C)CCC1=O` as the compound, how does the Potency read?
Its Potency is inconclusive: 29.1 µM [falling, single point].

Which Potency does the source give for `COc1ccccc1C(=O)Nc1sc(C(=O)N2CCCC2)c(C)c1C#N` here?
The Potency was inconclusive: 18.4 µM [activator, partial curve, poor fit].

For `C=C(C)CNC(=S)N/N=C/c1c(F)cccc1F`, which “activity change, negative = inhibition” value is on record?
The value was inactive: -1.81%.

Which Potency does the source give for `CSc1ccc(C(=O)C2CCCN(C(=O)CCc3c(C)nn(C)c3C)C2)cc1` (stereo not given) here?
The Potency was active: 9.2 µM.

For `O=C(CC1CCCCC1)N1CCCC(c2nc(-c3ccc(S(=O)(=O)N4CCCC4)cc3)no2)C1` (stereo not given), which Potency is on record?
The Potency was inconclusive: 25.9 µM [falling, single point].

For `O=C(O)c1ccc(Nc2nc3ccccc3nc2NS(=O)(=O)c2cccs2)cc1`, which “activity change, negative = inhibition” value is on record?
The value was inactive: 3.36%.

With `CC(C)(C)C(=O)NC(=S)NNC(=O)c1ccncc1` as the compound, how does the Potency read?
Its Potency is inconclusive: 16.4 µM [activator, single point].

Which Potency does the source give for `Cc1ccc(C)c(Nc2ccc3nonc3c2[N+](=O)[O-])c1` here?
The Potency was inconclusive: 9.2 µM [falling, partial curve, poor fit].

For `CCc1ccc2[nH]c(=O)c(CN(CCN(C)C)C(=O)Nc3ccccc3OC)cc2c1`, which “activity change, negative = inhibition” value is on record?
Its value is inactive: -5.31%.

With `COc1ccc(OC)c(CCNC(=O)C(C)n2nc(C)c3c(C)n(-c4ccccc4)nc3c2=O)c1` (stereo not given) as the compound, how does the “activity change, negative = inhibition” value read?
Its value is inactive: -14.2%.

With `O=C(Cc1cccs1)N/N=C/c1ccco1` as the compound, how does the “activity change, negative = inhibition” value read?
The value was inactive: 10.2%.

For `NC(=S)NN=C1c2ccccc2-c2ccccc21`, which Potency is on record?
Its Potency is inconclusive: 11.6 µM [falling, partial curve].

With `CC(C#Cc1ccc2c(c1)COc1c3ccccc3nn1-2)OC(C)(C)C` (stereo not given) as the compound, how does the Potency read?
Its Potency is inconclusive: 18.4 µM [activator, partial curve, poor fit].

With `Cn1c(=N)n(CC(=O)c2ccc(Cl)c(Cl)c2)c2ccccc21` as the compound, how does the Potency read?
Its Potency is inconclusive: 0.461 µM [activator, full curve, poor fit].

With `COCCn1c(SCC(=O)NCc2ccco2)nnc1-c1c[nH]c2ccccc12` as the compound, how does the Potency read?
The Potency was inconclusive: 6.51 µM [activator, partial curve, poor fit].
